Assay results: article doi:10.1101/2020.11.11.367672 (bioRxiv, 2020)
No constants are given. Whether binding was seen depends on the method and setting. Where a sequence is shown, tags or fusion partners need not be part of it. Blank lines part the entries; values can stand above or below the molecule they belong to.

Sequences of proteins named here, by UniProt entry; tags and fusion partners are left off.
UniProt Q9H6T3: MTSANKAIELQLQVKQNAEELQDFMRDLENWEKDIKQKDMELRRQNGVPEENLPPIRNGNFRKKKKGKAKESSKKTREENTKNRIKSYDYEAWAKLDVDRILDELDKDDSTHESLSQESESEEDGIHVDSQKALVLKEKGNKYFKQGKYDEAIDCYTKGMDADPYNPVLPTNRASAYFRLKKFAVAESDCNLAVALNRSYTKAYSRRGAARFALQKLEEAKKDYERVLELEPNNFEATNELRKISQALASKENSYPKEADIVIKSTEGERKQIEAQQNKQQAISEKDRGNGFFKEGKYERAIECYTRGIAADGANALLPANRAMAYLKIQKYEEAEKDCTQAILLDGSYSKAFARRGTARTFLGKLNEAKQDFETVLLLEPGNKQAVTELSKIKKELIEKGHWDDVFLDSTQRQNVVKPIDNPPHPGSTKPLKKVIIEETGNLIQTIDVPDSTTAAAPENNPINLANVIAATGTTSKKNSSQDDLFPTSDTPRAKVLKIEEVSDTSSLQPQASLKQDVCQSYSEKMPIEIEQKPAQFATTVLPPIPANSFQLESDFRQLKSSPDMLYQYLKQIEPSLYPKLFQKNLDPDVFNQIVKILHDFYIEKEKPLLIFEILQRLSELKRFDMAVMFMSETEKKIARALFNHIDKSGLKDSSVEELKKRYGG
UniProt Q9Y265: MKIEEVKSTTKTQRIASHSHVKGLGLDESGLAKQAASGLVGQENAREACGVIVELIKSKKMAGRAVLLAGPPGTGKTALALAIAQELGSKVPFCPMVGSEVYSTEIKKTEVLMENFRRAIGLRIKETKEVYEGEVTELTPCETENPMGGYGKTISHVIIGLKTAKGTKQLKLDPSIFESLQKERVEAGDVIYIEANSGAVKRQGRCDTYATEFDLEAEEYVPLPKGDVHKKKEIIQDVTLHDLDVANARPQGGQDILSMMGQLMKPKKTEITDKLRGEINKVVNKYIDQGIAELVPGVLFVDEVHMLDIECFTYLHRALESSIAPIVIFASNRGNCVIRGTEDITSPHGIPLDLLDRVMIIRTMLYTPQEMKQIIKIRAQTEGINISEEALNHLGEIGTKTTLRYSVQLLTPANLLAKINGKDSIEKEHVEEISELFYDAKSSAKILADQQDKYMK

Legend:
[1] = molecular target: T1, TRBP (yeast two-hybrid fusion) (human) (UniProt Q15633); assay: two-hybrid
T1 sequence: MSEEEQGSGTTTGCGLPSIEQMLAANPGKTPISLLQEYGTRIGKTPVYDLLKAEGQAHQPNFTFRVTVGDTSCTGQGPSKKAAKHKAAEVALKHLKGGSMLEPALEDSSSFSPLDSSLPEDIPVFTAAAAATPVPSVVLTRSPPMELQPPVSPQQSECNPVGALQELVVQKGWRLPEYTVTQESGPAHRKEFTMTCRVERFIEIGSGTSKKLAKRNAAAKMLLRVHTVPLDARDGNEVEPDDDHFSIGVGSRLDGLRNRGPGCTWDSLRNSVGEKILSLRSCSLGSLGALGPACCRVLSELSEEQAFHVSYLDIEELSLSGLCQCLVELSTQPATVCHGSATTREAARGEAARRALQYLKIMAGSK

[2] = molecular target: RPAP3 (yeast two-hybrid fusion) (human) (UniProt Q9H6T3); assay: two-hybrid

binding [1]: no binding
Molecule: RUVBL1 (yeast two-hybrid fusion) (from UniProt Q9Y265 1-456)

binding [2]: no binding
B1: PACT (yeast two-hybrid fusion) (protein, UniProt O75569 1-313)
chain: MSQSRHRAEAPPLEREDSGTFSLGKMITAKPGKTPIQVLHEYGMKTKNIPVYECERSDVQIHVPTFTFRVTVGDITCTGEGTSKKLAKHRAAEAAINILKANASICFAVPDPLMPDPSKQPKNQLNPIGSLQELAIHHGWRLPEYTLSQEGGPAHKREYTTICRLESFMETGKGASKKQAKRNAAEKFLAKFSNISPENHISLTNVVGHSLGCTWHSLRNSPGEKINLLKRSLLSIPNTDYIQLLSEIAKEQGFNITYLDIDELSANGQYQCLAELSTSPITVCHGSGISCGNAQSDAAHNALQYLKIIAERK
